# The other results are listed elsewhere or left out.
# B1: cFel (Cyprinus carpio), P68512 (protein)
# chain: LDCTVIDGNLKQIDAGSGSVVGVNNLNETFVLIDNVFTKISGSLKHFSVGPAGQLGVNTANNIFKYQSGGFVQLAGLLKQVDAGGDQIIAGVNMYDDIYCLNMDANNKWPSSNTPWVQINGKLKYYSCGPYSCWGVNSNDQIFIMKDVSSNVCSGSGSFINIPGLLSMIEVATDGSVFGVNSQGNLYQRTGVTRSKPDGTDWISMVACPNGHKHVSFDLGVLWLVCVDGSIRKCILTD
# Key:
# Assay in all cases: glycan array binding signal (z-score within array); higher = stronger binding
# Conditions in all cases: glycan notation: IUPAC condensed, linker removed
# [1] = molecular target: Neu5Ac(a2-3)Gal(b1-4)GlcNAc(b1-2)Man(a1-3)[Neu5Ac(a2-6)Gal(b1-4)GlcNAc(b1-2)Man(a1-6)]Man(b1-4)GlcNAc(b1-4)GlcNAc
# Procedure, shortened: (§1)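 The Consortium for Functional Glycomics database supplied 3228 glycan arrays, of which those lacking an available protein sequence were dropped. The binding signal, a within-array Z-score, was averaged across arrays of the same protein sequence and across linkers. Negative scores can be read as non-binding.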
# [2] = molecular target: Neu5Ac(a2-3)Gal(b1-4)GlcNAc(b1-2)[Neu5Ac(a2-3)Gal(b1-4)GlcNAc(b1-4)]Man(a1-3)[GlcNAc(b1-4)][Neu5Ac(a2-3)Gal(b1-4)GlcNAc(b1-2)[Neu5Ac(a2-3)Gal(b1-4)GlcNAc(b1-6)]Man(a1-6)]Man(b1-4)GlcNAc(b1-4)GlcNAc
# Procedure, shortened: as §1
# [3] = molecular target: Neu5Ac(a2-3)Gal(b1-4)GlcNAc(b1-2)[Neu5Ac(a2-3)Gal(b1-4)GlcNAc(b1-4)]Man(a1-3)[GlcNAc(b1-4)][Neu5Ac(a2-3)Gal(b1-4)GlcNAc(b1-4)Man(a1-6)]Man(b1-4)GlcNAc(b1-4)GlcNAc
# Procedure, shortened: as §1
# [4] = molecular target: Neu5Ac(a2-3)Gal(b1-4)GlcNAc(b1-2)[Neu5Ac(a2-3)Gal(b1-4)GlcNAc(b1-6)]Man(a1-6)[Neu5Ac(a2-3)Gal(b1-4)GlcNAc(b1-2)Man(a1-3)][GlcNAc(b1-4)]Man(b1-4)GlcNAc(b1-4)GlcNAc
# Procedure, shortened: as §1
# [5] = molecular target: Neu5Ac(a2-3)Gal(b1-4)GlcNAc(b1-3)Gal
# Procedure, shortened: as §1
# [6] = molecular target: Neu5Ac(a2-3)Gal(b1-4)GlcNAc(b1-3)Gal(b1-3)GlcNAc
# Procedure, shortened: as §1
# [7] = molecular target: Neu5Ac(a2-3)Gal(b1-4)GlcNAc(b1-3)Gal(b1-4)GlcNAc
# Procedure, shortened: as §1
# [8] = molecular target: Neu5Ac(a2-3)Gal(b1-4)GlcNAc(b1-3)Gal(b1-4)GlcNAc(b1-2)Man(a1-3)[Neu5Ac(a2-3)Gal(b1-4)GlcNAc(b1-3)Gal(b1-4)GlcNAc(b1-2)Man(a1-6)]Man(b1-4)GlcNAc(b1-4)GlcNAc
# Procedure, shortened: as §1
# [9] = molecular target: Neu5Ac(a2-3)Gal(b1-4)GlcNAc(b1-3)Gal(b1-4)GlcNAc(b1-3)Gal(b1-4)GlcNAc
# Procedure, shortened: as §1
# [10] = molecular target: Neu5Ac(a2-3)Gal(b1-4)GlcNAc(b1-3)Gal(b1-4)GlcNAc(b1-3)Gal(b1-4)GlcNAc(b1-2)Man(a1-3)[Neu5Ac(a2-3)Gal(b1-4)GlcNAc(b1-3)Gal(b1-4)GlcNAc(b1-3)Gal(b1-4)GlcNAc(b1-2)Man(a1-6)]GalNAc
# Procedure, shortened: as §1
# [11] = molecular target: Neu5Ac(a2-3)Gal(b1-4)GlcNAc(b1-3)Gal(b1-4)GlcNAc(b1-3)GalNAc
# Procedure, shortened: as §1
# [12] = molecular target: Neu5Ac(a2-3)Gal(b1-4)GlcNAc(b1-3)Gal(b1-4)GlcNAc(b1-3)[Neu5Ac(a2-3)Gal(b1-4)GlcNAc(b1-3)Gal(b1-4)GlcNAc(b1-6)]GalNAc
# Procedure, shortened: as §1
# [13] = molecular target: Neu5Ac(a2-3)Gal(b1-4)GlcNAc(b1-3)Gal(b1-4)GlcNAc(b1-6)[Gal(b1-3)]GalNAc
# Procedure, shortened: as §1
# [14] = molecular target: Neu5Ac(a2-3)Gal(b1-4)GlcNAc(b1-3)Gal(b1-4)[Fuc(a1-3)]GlcNAc
# Procedure, shortened: as §1
# [15] = molecular target: Neu5Ac(a2-3)Gal(b1-4)GlcNAc(b1-3)GalNAc
# Procedure, shortened: as §1
# [16] = molecular target: Neu5Ac(a2-3)Gal(b1-4)GlcNAc(b1-3)[Neu5Ac(a2-3)Gal(b1-4)GlcNAc(b1-6)]GalNAc
# Procedure, shortened: as §1
# [17] = molecular target: Neu5Ac(a2-3)Gal(b1-4)GlcNAc(b1-6)GalNAc
# Procedure, shortened: as §1
# [18] = molecular target: Neu5Ac(a2-3)Gal(b1-4)GlcNAc(b1-6)[Gal(b1-3)]GalNAc
# Procedure, shortened: as §1
# [19] = molecular target: Neu5Ac(a2-3)Gal(b1-4)GlcNAc(b1-6)[Neu5Ac(a2-3)Gal(b1-3)]GalNAc
# Procedure, shortened: as §1
# [20] = molecular target: Neu5Ac(a2-3)Gal(b1-4)GlcNAc6S
# Procedure, shortened: as §1
# [21] = molecular target: Neu5Ac(a2-3)Gal(b1-4)[Fuc(a1-3)]GlcNAc
# Procedure, shortened: as §1
# [22] = molecular target: Neu5Ac(a2-3)Gal(b1-4)[Fuc(a1-3)]GlcNAc(b1-2)Man
# Procedure, shortened: as §1
# [23] = molecular target: Neu5Ac(a2-3)Gal(b1-4)[Fuc(a1-3)]GlcNAc(b1-3)Gal
# Procedure, shortened: as §1
# [24] = molecular target: Neu5Ac(a2-3)Gal(b1-4)[Fuc(a1-3)]GlcNAc(b1-3)Gal(b1-4)GlcNAc
# Procedure, shortened: as §1
# [25] = molecular target: Neu5Ac(a2-3)Gal(b1-4)[Fuc(a1-3)]GlcNAc(b1-3)Gal(b1-4)[Fuc(a1-3)]GlcNAc(b1-3)Gal(b1-4)[Fuc(a1-3)]GlcNAc
# Procedure, shortened: as §1
# [26] = molecular target: Neu5Ac(a2-3)Gal(b1-4)[Fuc(a1-3)]GlcNAc(b1-3)GalNAc
# Procedure, shortened: as §1
# [27] = molecular target: Neu5Ac(a2-3)Gal(b1-4)[Fuc(a1-3)]GlcNAc(b1-6)[Gal(b1-3)]GalNAc
# Procedure, shortened: as §1
# [28] = molecular target: Neu5Ac(a2-3)Gal(b1-4)[Fuc(a1-3)]GlcNAc(b1-6)[Neu5Ac(a2-3)Gal(b1-3)]GalNAc
# Procedure, shortened: as §1
# [29] = molecular target: Neu5Ac(a2-3)Gal(b1-4)[Fuc(a1-3)]GlcNAc6S
# Procedure, shortened: as §1
# [30] = molecular target: Neu5Ac(a2-3)Gal6S(b1-4)GlcNAc
# Procedure, shortened: as §1
# [31] = molecular target: Neu5Ac(a2-3)Gal6S(b1-4)[Fuc(a1-3)]GlcNAc
# Procedure, shortened: as §1
# [32] = molecular target: Neu5Ac(a2-3)GalNAc
# Procedure, shortened: as §1
# [33] = molecular target: Neu5Ac(a2-3)GalNAc(b1-4)GlcNAc
# Procedure, shortened: as §1
# [34] = molecular target: Neu5Ac(a2-3)[GalNAc(b1-4)]Gal(b1-4)Glc
# Procedure, shortened: as §1
# [35] = molecular target: Neu5Ac(a2-3)[GalNAc(b1-4)]Gal(b1-4)GlcNAc
# Procedure, shortened: as §1
# [36] = molecular target: Neu5Ac(a2-3)[GalNAc(b1-4)]Gal(b1-4)GlcNAc(b1-3)GalNAc
# Procedure, shortened: as §1
# [37] = molecular target: Neu5Ac(a2-3)[Neu5Ac(a2-6)]GalNAc
# Procedure, shortened: as §1
# [38] = molecular target: Neu5Ac(a2-6)Gal
# Procedure, shortened: as §1
# [39] = molecular target: Neu5Ac(a2-6)Gal(b1-3)GlcNAc(b1-3)[Gal(b1-4)GlcNAc(b1-6)]Gal(b1-4)Glc
# Procedure, shortened: as §1
# [40] = molecular target: Neu5Ac(a2-6)Gal(b1-4)Glc
# Procedure, shortened: as §1
# [41] = molecular target: Neu5Ac(a2-6)Gal(b1-4)GlcNAc
# Procedure, shortened: as §1
# [42] = molecular target: Neu5Ac(a2-6)Gal(b1-4)GlcNAc(b1-2)Man
# Procedure, shortened: as §1
# [43] = molecular target: Neu5Ac(a2-6)Gal(b1-4)GlcNAc(b1-2)Man(a1-3)Man(b1-4)GlcNAc(b1-4)GlcNAc
# Procedure, shortened: as §1
# [44] = molecular target: Neu5Ac(a2-6)Gal(b1-4)GlcNAc(b1-2)Man(a1-3)[Gal(b1-4)GlcNAc(b1-2)Man(a1-6)]Man(b1-4)GlcNAc(b1-4)GlcNAc
# Procedure, shortened: as §1
# [45] = molecular target: Neu5Ac(a2-6)Gal(b1-4)GlcNAc(b1-2)Man(a1-3)[GlcNAc(b1-4)][Neu5Ac(a2-6)Gal(b1-4)GlcNAc(b1-2)Man(a1-6)]Man(b1-4)GlcNAc(b1-4)GlcNAc
# Procedure, shortened: as §1
binder,measurement,setting,value
B1,glycan array binding signal (z-score),[1],-1.17
same,glycan array binding signal (z-score),[2],0.562
same,glycan array binding signal (z-score),[3],-0.578
same,glycan array binding signal (z-score),[4],1.45
same,glycan array binding signal (z-score),[5],-0.498
same,glycan array binding signal (z-score),[6],-0.038
same,glycan array binding signal (z-score),[7],-0.339
same,glycan array binding signal (z-score),[8],-0.134
same,glycan array binding signal (z-score),[9],0.322
same,glycan array binding signal (z-score),[10],-1.27
same,glycan array binding signal (z-score),[11],-0.912
same,glycan array binding signal (z-score),[12],-0.999
same,glycan array binding signal (z-score),[13],-0.862
same,glycan array binding signal (z-score),[14],0.401
same,glycan array binding signal (z-score),[15],-1.64
same,glycan array binding signal (z-score),[16],-0.53
same,glycan array binding signal (z-score),[17],-0.95
same,glycan array binding signal (z-score),[18],0.62
same,glycan array binding signal (z-score),[19],-0.131
same,glycan array binding signal (z-score),[20],-0.931
same,glycan array binding signal (z-score),[21],1.11
same,glycan array binding signal (z-score),[22],-0.405
same,glycan array binding signal (z-score),[23],-1.52
same,glycan array binding signal (z-score),[24],-1.16
same,glycan array binding signal (z-score),[25],-1.09
same,glycan array binding signal (z-score),[26],0.437
same,glycan array binding signal (z-score),[27],0.428
same,glycan array binding signal (z-score),[28],1.44
same,glycan array binding signal (z-score),[29],-1.29
same,glycan array binding signal (z-score),[30],1.71
same,glycan array binding signal (z-score),[31],-0.444
same,glycan array binding signal (z-score),[32],-1.15
same,glycan array binding signal (z-score),[33],-1.23
same,glycan array binding signal (z-score),[34],-0.516
same,glycan array binding signal (z-score),[35],0.215
same,glycan array binding signal (z-score),[36],-0.199
same,glycan array binding signal (z-score),[37],-0.084
same,glycan array binding signal (z-score),[38],-0.997
same,glycan array binding signal (z-score),[39],0.399
same,glycan array binding signal (z-score),[40],-0.293
same,glycan array binding signal (z-score),[41],-0.185
same,glycan array binding signal (z-score),[42],-0.345
same,glycan array binding signal (z-score),[43],0.167
same,glycan array binding signal (z-score),[44],0.403
same,glycan array binding signal (z-score),[45],1.4

# Four records drawn at random from the list so far, as already listed:
binder,measurement,setting,value
B1,glycan array binding signal (z-score),[2],0.562
same,glycan array binding signal (z-score),[38],-0.997
same,glycan array binding signal (z-score),[20],-0.931
same,glycan array binding signal (z-score),[5],-0.498
